Measured data: PubChem BioAssay AID652243 (Drosophila RNAi Screening Center, 2013)

- Screen: 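Fly regulators of androgen-dependent reporter output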 (primary screen)
- Cells: Drosophila S2R+ cells
- Reagent: long dsRNA against Drosophila genes
- Duration: 72 h (48 h, then 24 h hormone)
- Conditions: synthetic androgen R1881 at 10 nM for 24 h
- Detection: 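Firefly light from an androgen-responsive reporter and Renilla control light per well, raw and unnormalised, for each of two replicates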
- Direction: firefly reporter light: higher = more light from androgen-responsive reporter; Renilla control light: higher = more constitutive control signal (cell number, transfection)
- Rule for the call: 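Across duplicate plates, a knock-down whose log firefly/Renilla ratio shifted a set fold down or up from the GFP/LacZ control mean was a hit; the downward cut appears as both 1.5 and 3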
- Meaning of the calls: active = hit: reporter lowered or raised; inactive = no hit
In all, the deposit lists about 24,000 reagents; this is a random part of those with a known target gene and a result. In the full data, 246 (1%) are marked active. 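Plates not normalised; calls are printed but the firefly/Renilla ratio behind them is not deposited; fold cut for lowering reported inconsistently.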 The raw values are shown without normalisation. Not stated in the record: the amount of reagent.

| gene knocked down | DRSC id | firefly reporter light, replicate 1 | firefly reporter light, replicate 2 | Renilla control light, replicate 1 | Renilla control light, replicate 2 | Call |
| --- | --- | --- | --- | --- | --- | --- |
| CG11594 (GeneID 38473) | DRSC08207 | 1.14e6 | 5.66e5 | 1.98e6 | 1.38e6 | inactive |
| Ir7d (GeneID 7354416) | DRSC18010 | 3.60e5 | 3.43e5 | 2.48e6 | 2.95e6 | inactive |
| CG5023 (GeneID 42400) | DRSC15697 | 2.35e5 | 2.78e5 | 3.95e6 | 4.44e6 | inactive |
| RpL27A (GeneID 33654) | DRSC00781 | 1.05e5 | 1.25e5 | 7.99e5 | 1.05e6 | inactive |
| RpL27A (GeneID 33654) | DRSC28466 | 1.75e5 | 3.50e5 | 4.13e5 | 6.44e5 | inactive |
| CG43117 (GeneID 12798272) | DRSC13767 | 7.59e5 | 8.17e5 | 8.24e5 | 9.81e5 | inactive |
| CG43117 (GeneID 12798272) | DRSC26060 | 2.66e5 | 2.83e5 | 7.75e5 | 7.44e5 | inactive |
| hng2 (GeneID 41056) | DRSC16412 | 82315 | 1.02e5 | 2.04e6 | 2.16e6 | inactive |
| Pex3 (GeneID 39652) | DRSC10731 | 7.83e5 | 5.64e5 | 8.68e5 | 6.67e5 | inactive |
| CG34320 (retired record) (GeneID 5740595) | DRSC38798 | 5.66e5 | 5.02e5 | 1.26e6 | 1.29e6 | inactive |
| Gpa2 (GeneID 5740142) | DRSC38765 | 1.38e6 | 1.05e6 | 2.70e6 | 1.82e6 | inactive |
| CG5056 (GeneID 34406) | DRSC02808 | 2.44e5 | 2.94e5 | 1.72e6 | 2.08e6 | inactive |
| Pax (GeneID 35215) | DRSC01703 | 1.80e5 | 2.11e5 | 3.94e5 | 4.96e5 | inactive |
| Pax (GeneID 35215) | DRSC02651 | 7.91e5 | 5.97e5 | 2.08e6 | 2.09e6 | inactive |
| Pax (GeneID 35215) | DRSC02652 | 2.53e5 | 3.09e5 | 2.91e6 | 2.63e6 | inactive |
| ab (GeneID 34560) | DRSC01162 | 7397 | 8797 | 43922 | 50951 | inactive |
| ab (GeneID 34560) | DRSC23151 | 9.07e5 | 1.17e6 | 1.03e6 | 1.25e6 | inactive |
| ab (GeneID 34560) | DRSC23179 | 2.09e6 | 1.58e6 | 2.33e6 | 1.93e6 | inactive |
| heca (GeneID 43604) | DRSC22990 | 5.88e5 | 9.46e5 | 1.05e6 | 1.50e6 | inactive |
| heca (GeneID 43604) | DRSC25796 | 3.97e5 | 3.97e5 | 7.15e5 | 5.42e5 | inactive |
| uzip (GeneID 38002) | DRSC04722 | 6.70e5 | 6.90e5 | 1.45e6 | 1.52e6 | inactive |
| uzip (GeneID 38002) | DRSC30045 | 6.22e5 | 6.46e5 | 1.24e6 | 1.36e6 | inactive |
| CG30159 (GeneID 35611) | DRSC04981 | 6.27e5 | 7.37e5 | 2.06e6 | 2.01e6 | inactive |
| CG30159 (GeneID 35611) | DRSC26683 | 3.16e5 | 2.51e5 | 7.72e5 | 6.84e5 | inactive |
| CG15877 (GeneID 38304) | DRSC08485 | 72632 | 67388 | 1.02e6 | 1.22e6 | inactive |
| CG42327 (GeneID 41401) | DRSC14936 | 1.10e5 | 89219 | 1.46e6 | 1.72e6 | inactive |
| CG42327 (GeneID 41401) | DRSC14937 | 1.22e5 | 1.22e5 | 2.03e6 | 1.58e6 | inactive |
| CG42327 (GeneID 41401) | DRSC23337 | 6.35e5 | 5.68e5 | 4.53e5 | 4.27e5 | inactive |
| CG42327 (GeneID 41401) | DRSC28159 | 5.88e5 | 3.69e5 | 1.28e6 | 1.09e6 | inactive |
| CG42327 (GeneID 41401) | DRSC28248 | 3.74e5 | 8.64e5 | 1.23e6 | 1.74e6 | inactive |
| CG33253 (GeneID 2768889) | DRSC19547 | 2.83e5 | 1.16e5 | 9.09e5 | 4.34e5 | inactive |
| CG33253 (GeneID 2768889) | DRSC20053 | 7.25e5 | 1.00e6 | 1.62e6 | 2.22e6 | inactive |
| nonC (GeneID 31625) | DRSC18366 | 81623 | 26844 | 3.55e5 | 3.27e5 | inactive |
| nonC (GeneID 31625) | DRSC18367 | 3.02e5 | 2.84e5 | 2.62e6 | 2.18e6 | inactive |
| nonC (GeneID 31625) | DRSC37080 | – | – | – | – | inactive |
| CG18508 (GeneID 59253) | DRSC18155 | 3.67e5 | 3.36e5 | 4.58e6 | 3.28e6 | inactive |
| CG18508 (GeneID 59253) | DRSC25633 | 6.07e5 | 7.01e5 | 1.02e6 | 1.32e6 | inactive |
| CG17109 (GeneID 42730) | DRSC15172 | 1.98e5 | 2.58e5 | 3.01e6 | 3.39e6 | inactive |
| CG17109 (GeneID 42730) | DRSC26637 | 3.20e5 | 3.24e5 | 3.81e5 | 5.32e5 | inactive |
| Ssdp (GeneID 42177) | DRSC16211 | 33516 | 37172 | 4.87e5 | 5.27e5 | inactive |
| Ssdp (GeneID 42177) | DRSC27526 | 2.53e5 | 2.19e5 | 4.00e5 | 6.22e5 | inactive |
